PubChem BioAssay AID504791, Drosophila RNAi Screening Center, 2011
In all, the deposit lists about 23,000 reagents; this is a random part of those with a known target gene and a result. In the full data, 199 (0.86%) were called active. 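Plate-scaled ratios behind the calls are not deposited; printed light signals are raw; many rows marked increased or decreased are still called inactive.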 Reagents against one gene are numbered here. Not stated in the record: the direction of the score.

Screen: 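Genes whose knock-down strengthens or weakens small-RNA reporter silencing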 (primary screen)
Cell system: Drosophila S2-derived reporter cells
Reagents: long dsRNA against Drosophila genes, about 150-250 ng dsRNA per well (siRNA assay); about 80-120 ng (miRNA assay)
Time to read-out: about 5 days (siRNA assay); about 4 days (miRNA assay)
Challenge: copper sulfate induction of reporters: 25 µM (siRNA assay); 200 mM stated (miRNA assay), 1-2 days before reading
Read-out: 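Per-well ratio of Renilla over firefly light, expressed relative to that plate's average ratio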
Units: stable assay Renilla, run 1 in luminescence; stable assay firefly, run 1 in luminescence
Hit rule: 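First-pass picks had plate-scaled ratios over 1.5 for the siRNA assay, over 1.6 for the miRNA assay, or under 0.6; two distinct dsRNAs had to score alike on retest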

Cpr76Bb (Cuticular protein 76Bb) #1 | stable assay Renilla, run 1: 6955; stable assay firefly, run 1: 4.65e5; outcome: inactive
Cpr76Bb (Cuticular protein 76Bb) #2 | stable assay Renilla, run 1: 4883; stable assay firefly, run 1: 5.82e5; outcome: inactive
CG32815 | stable assay Renilla, run 1: 5954; stable assay firefly, run 1: 4.11e5; outcome: inactive
mRpL33 (mitochondrial ribosomal protein L33) | stable assay Renilla, run 1: 5538; stable assay firefly, run 1: 3.88e5; outcome: inactive
Scsalpha1 (Succinyl-coenzyme A synthetase alpha subunit 1) | stable assay Renilla, run 1: 12046; stable assay firefly, run 1: 4.89e5; outcome: inactive
CG14229 #1 | stable assay Renilla, run 1: 5584; stable assay firefly, run 1: 4.94e5; outcome: inactive
CG14229 #2 | stable assay Renilla, run 1: 3747; stable assay firefly, run 1: 2.93e5; outcome: inactive
CG5500 | stable assay Renilla, run 1: 6415; stable assay firefly, run 1: 4.25e5; outcome: inactive
Jon65Ai (Jonah 65Ai) | stable assay Renilla, run 1: 6399; stable assay firefly, run 1: 4.13e5; outcome: inactive
Cngl (Cyclic nucleotide-gated ion channel-like) | stable assay Renilla, run 1: 6755; stable assay firefly, run 1: 6.53e5; outcome: inactive

In a second layout: results already given.
gene knocked down,dsRNA no.,miRNA reporter change,"stable assay Renilla, run 1","stable assay firefly, run 1",outcome
CG5500,1,,6415,4.25e5,inactive
Jon65Ai (Jonah 65Ai),1,,6399,4.13e5,inactive

Further records:
CG14540 | stable assay Renilla, run 1: 6799; stable assay firefly, run 1: 3.04e5; outcome: inactive
CG3500 | stable assay Renilla, run 1: 6154; stable assay firefly, run 1: 3.22e5; outcome: inactive
ths (thisbe) #1 | stable assay Renilla, run 1: 4208; stable assay firefly, run 1: 1.67e5; outcome: inactive
ths (thisbe) #2 | stable assay Renilla, run 1: 7834; stable assay firefly, run 1: 4.16e5; outcome: inactive
FeCH (Ferrochelatase) | stable assay Renilla, run 1: 7479; stable assay firefly, run 1: 4.08e5; outcome: inactive
Gasz | stable assay Renilla, run 1: 7610; stable assay firefly, run 1: 3.79e5; outcome: inactive
slpr (slipper) #1 | stable assay Renilla, run 1: 8118; stable assay firefly, run 1: 5.79e5; outcome: inactive
slpr (slipper) #2 | stable assay Renilla, run 1: 5083; stable assay firefly, run 1: 2.79e5; outcome: inactive
CG13841 #1 | stable assay Renilla, run 1: 6579; stable assay firefly, run 1: 3.90e5; outcome: inactive
CG13841 #2 | miRNA reporter change: reporter ratio lowered past the hit cutoff; outcome: inactive
